# Reference: the supplement of paper PMC6411743
# By UniProt entry, the sequences of proteins in these tests, tags left out. Where a name states a change or a piece, a line headed by the entry shows the natural chain unless it says otherwise.
# UniProt Q9Y5V0: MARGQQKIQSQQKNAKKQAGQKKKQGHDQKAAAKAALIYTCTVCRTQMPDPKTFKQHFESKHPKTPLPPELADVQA
# UniProt Q9Y2Y1: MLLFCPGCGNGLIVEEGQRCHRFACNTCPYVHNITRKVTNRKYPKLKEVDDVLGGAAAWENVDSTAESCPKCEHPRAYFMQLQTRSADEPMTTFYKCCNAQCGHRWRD
# UniProt P48556: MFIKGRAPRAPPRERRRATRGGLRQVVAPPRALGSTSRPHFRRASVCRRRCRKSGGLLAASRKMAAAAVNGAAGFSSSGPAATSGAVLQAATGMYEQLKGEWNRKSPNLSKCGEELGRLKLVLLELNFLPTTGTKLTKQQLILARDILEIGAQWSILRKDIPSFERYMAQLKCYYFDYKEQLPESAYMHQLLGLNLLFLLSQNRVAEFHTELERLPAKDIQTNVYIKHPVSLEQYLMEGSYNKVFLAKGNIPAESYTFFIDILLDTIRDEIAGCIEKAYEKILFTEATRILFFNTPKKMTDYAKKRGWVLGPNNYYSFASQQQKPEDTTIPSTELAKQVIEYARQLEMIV
# UniProt Q9Y3A2: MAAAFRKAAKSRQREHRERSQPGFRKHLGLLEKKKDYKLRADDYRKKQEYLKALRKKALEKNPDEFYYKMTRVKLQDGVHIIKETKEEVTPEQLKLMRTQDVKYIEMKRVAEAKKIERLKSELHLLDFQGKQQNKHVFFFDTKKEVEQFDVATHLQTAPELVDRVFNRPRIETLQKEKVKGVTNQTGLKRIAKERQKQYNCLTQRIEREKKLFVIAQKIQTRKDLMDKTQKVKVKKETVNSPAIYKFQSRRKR
# UniProt Q9Y6M9, whole entry: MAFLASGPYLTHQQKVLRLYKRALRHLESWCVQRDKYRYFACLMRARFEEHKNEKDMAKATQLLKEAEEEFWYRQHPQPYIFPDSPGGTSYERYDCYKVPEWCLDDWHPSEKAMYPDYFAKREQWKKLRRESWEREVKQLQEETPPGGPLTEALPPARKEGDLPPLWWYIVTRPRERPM
# UniProt Q9Y6N5: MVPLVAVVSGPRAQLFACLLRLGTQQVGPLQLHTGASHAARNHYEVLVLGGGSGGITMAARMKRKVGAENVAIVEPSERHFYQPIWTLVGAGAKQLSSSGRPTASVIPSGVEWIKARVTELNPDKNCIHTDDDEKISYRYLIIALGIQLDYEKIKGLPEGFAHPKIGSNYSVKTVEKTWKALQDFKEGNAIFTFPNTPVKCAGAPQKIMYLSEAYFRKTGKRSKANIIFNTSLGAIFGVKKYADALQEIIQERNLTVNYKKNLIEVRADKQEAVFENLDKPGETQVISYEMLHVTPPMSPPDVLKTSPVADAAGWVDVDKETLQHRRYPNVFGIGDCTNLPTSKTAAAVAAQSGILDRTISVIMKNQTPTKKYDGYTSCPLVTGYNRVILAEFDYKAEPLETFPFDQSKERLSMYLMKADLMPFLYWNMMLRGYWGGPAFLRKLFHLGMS
# UniProt Q9Y5N6: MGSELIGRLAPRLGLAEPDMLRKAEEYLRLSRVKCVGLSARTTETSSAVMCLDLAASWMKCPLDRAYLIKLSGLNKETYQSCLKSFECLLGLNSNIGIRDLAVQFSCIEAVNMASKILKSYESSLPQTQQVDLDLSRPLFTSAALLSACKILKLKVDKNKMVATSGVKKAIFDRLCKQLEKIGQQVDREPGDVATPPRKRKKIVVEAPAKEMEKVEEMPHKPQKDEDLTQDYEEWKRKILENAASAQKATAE
# UniProt Q9Y2W1: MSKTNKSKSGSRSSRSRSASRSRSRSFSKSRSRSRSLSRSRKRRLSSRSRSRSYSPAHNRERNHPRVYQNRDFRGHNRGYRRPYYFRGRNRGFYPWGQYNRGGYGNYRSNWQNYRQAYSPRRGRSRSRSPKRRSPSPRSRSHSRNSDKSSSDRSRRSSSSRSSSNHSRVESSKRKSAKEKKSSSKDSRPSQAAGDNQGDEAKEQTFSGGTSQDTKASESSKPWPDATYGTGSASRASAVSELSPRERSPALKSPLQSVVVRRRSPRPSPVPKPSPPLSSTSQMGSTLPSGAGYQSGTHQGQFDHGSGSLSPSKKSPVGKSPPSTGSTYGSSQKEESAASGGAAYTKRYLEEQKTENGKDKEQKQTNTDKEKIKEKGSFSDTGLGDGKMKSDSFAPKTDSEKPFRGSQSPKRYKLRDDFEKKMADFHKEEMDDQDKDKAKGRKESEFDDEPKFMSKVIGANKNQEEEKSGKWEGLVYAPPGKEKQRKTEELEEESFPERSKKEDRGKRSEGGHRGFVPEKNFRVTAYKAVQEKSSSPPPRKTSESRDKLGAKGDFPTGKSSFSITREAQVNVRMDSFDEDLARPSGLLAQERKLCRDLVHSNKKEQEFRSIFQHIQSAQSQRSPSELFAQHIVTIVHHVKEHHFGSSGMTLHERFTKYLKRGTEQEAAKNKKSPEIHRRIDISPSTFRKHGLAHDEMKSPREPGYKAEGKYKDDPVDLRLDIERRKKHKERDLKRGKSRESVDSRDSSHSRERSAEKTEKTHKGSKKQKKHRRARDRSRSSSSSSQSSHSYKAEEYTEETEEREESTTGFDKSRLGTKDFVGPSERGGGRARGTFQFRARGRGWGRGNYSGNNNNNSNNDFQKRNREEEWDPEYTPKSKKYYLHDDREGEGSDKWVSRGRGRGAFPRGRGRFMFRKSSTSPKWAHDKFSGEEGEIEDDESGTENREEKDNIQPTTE
# UniProt Q9Y6M5: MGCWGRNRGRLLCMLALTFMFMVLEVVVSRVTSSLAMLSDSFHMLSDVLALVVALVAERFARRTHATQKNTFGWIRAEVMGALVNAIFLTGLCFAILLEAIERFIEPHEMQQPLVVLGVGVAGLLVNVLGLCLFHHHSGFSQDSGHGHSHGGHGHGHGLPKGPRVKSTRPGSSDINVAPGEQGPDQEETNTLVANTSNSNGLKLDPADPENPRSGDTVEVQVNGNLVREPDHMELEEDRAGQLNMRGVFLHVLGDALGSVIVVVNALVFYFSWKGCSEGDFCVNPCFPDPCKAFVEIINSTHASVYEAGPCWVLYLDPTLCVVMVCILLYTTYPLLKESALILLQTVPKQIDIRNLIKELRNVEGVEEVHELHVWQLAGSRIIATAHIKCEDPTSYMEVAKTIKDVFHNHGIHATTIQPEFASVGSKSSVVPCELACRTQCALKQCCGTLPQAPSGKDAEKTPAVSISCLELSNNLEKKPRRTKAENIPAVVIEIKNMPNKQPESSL
# UniProt Q9Y3E0: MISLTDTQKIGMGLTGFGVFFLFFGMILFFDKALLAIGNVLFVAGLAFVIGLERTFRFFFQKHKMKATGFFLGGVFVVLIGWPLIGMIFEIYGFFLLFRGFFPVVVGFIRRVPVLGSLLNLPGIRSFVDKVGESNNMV
# UniProt Q9Y5U2: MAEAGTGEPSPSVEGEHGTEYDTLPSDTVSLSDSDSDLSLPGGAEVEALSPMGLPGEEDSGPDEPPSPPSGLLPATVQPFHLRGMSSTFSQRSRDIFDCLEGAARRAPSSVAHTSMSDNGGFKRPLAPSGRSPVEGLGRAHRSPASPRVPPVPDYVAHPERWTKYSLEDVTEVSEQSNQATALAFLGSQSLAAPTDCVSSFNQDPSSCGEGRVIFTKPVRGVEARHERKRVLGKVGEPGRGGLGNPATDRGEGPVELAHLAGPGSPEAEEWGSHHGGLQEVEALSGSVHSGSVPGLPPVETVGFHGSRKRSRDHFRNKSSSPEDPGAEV
# UniProt Q9Y6A9: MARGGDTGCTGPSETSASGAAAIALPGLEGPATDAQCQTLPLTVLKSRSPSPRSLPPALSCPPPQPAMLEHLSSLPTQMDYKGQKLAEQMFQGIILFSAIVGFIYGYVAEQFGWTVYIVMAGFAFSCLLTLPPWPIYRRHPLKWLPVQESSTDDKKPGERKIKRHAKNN
# UniProt Q9Y4B5: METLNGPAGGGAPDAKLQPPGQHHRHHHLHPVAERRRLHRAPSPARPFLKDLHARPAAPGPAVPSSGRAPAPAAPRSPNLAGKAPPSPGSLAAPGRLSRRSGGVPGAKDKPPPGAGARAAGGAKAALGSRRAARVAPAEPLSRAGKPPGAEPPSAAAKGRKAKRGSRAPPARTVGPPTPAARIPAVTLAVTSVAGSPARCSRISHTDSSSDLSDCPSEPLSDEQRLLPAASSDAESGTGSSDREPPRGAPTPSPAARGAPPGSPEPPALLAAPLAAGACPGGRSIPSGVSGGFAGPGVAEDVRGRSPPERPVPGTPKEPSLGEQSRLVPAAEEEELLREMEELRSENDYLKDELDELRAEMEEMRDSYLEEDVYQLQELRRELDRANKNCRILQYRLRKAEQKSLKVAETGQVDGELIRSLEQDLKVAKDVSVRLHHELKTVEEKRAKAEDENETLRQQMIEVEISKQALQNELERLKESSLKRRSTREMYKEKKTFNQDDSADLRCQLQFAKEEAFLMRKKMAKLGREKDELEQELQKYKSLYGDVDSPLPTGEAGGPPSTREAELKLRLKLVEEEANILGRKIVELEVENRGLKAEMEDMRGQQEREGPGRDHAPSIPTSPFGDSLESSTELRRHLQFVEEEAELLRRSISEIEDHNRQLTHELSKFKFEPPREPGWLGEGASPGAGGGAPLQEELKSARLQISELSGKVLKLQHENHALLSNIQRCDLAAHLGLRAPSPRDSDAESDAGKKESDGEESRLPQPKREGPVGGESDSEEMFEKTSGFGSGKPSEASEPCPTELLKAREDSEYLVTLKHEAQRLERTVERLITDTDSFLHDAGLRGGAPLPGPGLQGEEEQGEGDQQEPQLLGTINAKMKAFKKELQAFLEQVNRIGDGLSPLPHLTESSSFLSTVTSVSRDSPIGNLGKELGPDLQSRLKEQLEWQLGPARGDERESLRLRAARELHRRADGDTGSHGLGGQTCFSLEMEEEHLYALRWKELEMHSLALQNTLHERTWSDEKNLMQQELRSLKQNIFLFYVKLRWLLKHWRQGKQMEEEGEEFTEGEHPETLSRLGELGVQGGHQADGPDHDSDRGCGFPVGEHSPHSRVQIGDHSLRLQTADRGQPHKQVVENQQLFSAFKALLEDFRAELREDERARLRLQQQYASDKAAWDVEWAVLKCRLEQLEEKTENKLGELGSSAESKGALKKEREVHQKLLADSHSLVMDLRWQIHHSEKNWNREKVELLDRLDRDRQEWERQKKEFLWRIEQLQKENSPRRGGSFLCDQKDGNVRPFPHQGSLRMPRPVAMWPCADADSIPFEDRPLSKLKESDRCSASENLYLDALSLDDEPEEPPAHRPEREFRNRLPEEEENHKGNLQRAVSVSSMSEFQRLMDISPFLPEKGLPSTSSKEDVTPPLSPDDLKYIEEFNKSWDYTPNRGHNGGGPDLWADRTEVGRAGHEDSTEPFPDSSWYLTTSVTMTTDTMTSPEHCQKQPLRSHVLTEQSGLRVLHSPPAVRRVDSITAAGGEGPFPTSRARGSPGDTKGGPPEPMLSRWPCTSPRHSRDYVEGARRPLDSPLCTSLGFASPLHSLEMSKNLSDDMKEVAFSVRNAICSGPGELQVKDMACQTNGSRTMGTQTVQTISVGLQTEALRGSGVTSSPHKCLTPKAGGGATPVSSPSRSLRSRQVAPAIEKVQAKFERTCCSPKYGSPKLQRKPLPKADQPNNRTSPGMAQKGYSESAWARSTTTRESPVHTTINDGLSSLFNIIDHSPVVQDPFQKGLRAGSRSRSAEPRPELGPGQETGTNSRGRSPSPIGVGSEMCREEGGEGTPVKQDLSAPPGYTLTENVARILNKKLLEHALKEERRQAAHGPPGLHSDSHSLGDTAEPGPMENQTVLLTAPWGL
# ± gives the standard deviation of the averaged measurements. Only a part is listed here, and it is no random draw.
# Compound: Nc1ncnc2c1ncn2[C@@H]1O[C@H](COP(=O)(O)OP(=O)(O)OP(=O)(O)O)[C@@H](O)[C@H]1O [adenosine triphosphate]
# Test: NP40-soluble protein abundance relative to vehicle (solubility fold change) (ratio); higher = more soluble protein in presence of ATP
# In short: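 Each value is a fold change relative to the detergent-processed vehicle, calculated per replicate from vsn-normalised intensities. Jurkat crude lysate received eight concentrations (0.1 to 10 mM) for 10 min at room temperature and 3 min at 37 °C, then was solubilised in 0.8% NP40 with benzonase (60 min, 4 °C). The ultracentrifuged supernatant was TMT-labelled and run by LC-MS/MS in three independent experiments.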
Target,NP40-soluble protein abundance (concentration: 1mM),NP40-soluble protein abundance (concentration: 2mM),NP40-soluble protein abundance (concentration: 4mM),NP40-soluble protein abundance (concentration: 6mM),NP40-soluble protein abundance (concentration: 8mM),NP40-soluble protein abundance (concentration: 10mM)
UniProt Q9Y5V0,0.924 ± 0.12,0.992 ± 0.099,0.963 ± 0.21,0.911 ± 0.088,0.802 ± 0.15,0.841 ± 0.2
ENPP4 (UniProt Q9Y6X5),1.05 ± 0.042,1.06 ± 0.034,1.03 ± 0.011,1.01 ± 0.063,1.01 ± 0.011,0.959 ± 0.054
RNF115 (UniProt Q9Y4L5),0.99 ± 0.11,0.991 ± 0.14,1 ± 0.065,1.01 ± 0.057,0.972 ± 0.17,1.035 ± 0.0042
DNMT3A (UniProt Q9Y6K1),1.06 ± 0.056,1.07 ± 0.035,1.09 ± 0.024,1.05 ± 0.031,1.05 ± 0.018,1.08 ± 0.045
INPP5F (UniProt Q9Y2H2),1 ± 0.065,0.995 ± 0.05,1.05 ± 0.043,1.03 ± 0.063,1.03 ± 0.048,1 ± 0.035
POLR3K (UniProt Q9Y2Y1),0.96 ± 0.068,0.907 ± 0.049,1.05 ± 0.14,0.977 ± 0.19,0.8941 ± 0.0074,1 ± 0.074
NOC2L (UniProt Q9Y3T9),1.04 ± 0.026,1.04 ± 0.015,1.08 ± 0.023,1.08 ± 0.027,1.148 ± 0.01,1.22 ± 0.044
CNPY2 (UniProt Q9Y2B0),0.959 ± 0.086,0.943 ± 0.04,0.91 ± 0.027,0.971 ± 0.05,0.9114 ± 0.0072,0.859 ± 0.053
TLN2 (UniProt Q9Y4G6),0.987 ± 0.04,0.99 ± 0.039,1.01 ± 0.056,0.993 ± 0.024,0.9302 ± 0.0053,0.973 ± 0.057
R4GMR5 and related entries (UniProt P48556),0.896 ± 0.051,0.864 ± 0.02,0.828 ± 0.027,0.791 ± 0.035,0.864 ± 0.064,0.825 ± 0.023
UniProt Q9Y530,0.953 ± 0.046,1.02 ± 0.021,0.979 ± 0.063,0.978 ± 0.033,0.95 ± 0.052,0.987 ± 0.03
UTP11 (UniProt Q9Y3A2),1 ± 0.23,0.928 ± 0.2,1.01 ± 0.3,0.976 ± 0.26,1.01 ± 0.29,1.07 ± 0.25
EXOSC1 (UniProt Q9Y3B2),1.03 ± 0.044,1.05 ± 0.026,1.06 ± 0.038,1.1 ± 0.058,1.14 ± 0.051,1.19 ± 0.034
UniProt Q9Y2V7 and related entries,0.995 ± 0.036,0.99 ± 0.02,0.985 ± 0.022,0.943 ± 0.048,0.962 ± 0.015,0.966 ± 0.05
UniProt Q9Y4E8 and related entries,0.974 ± 0.029,0.971 ± 0.044,0.949 ± 0.049,0.972 ± 0.032,0.954 ± 0.024,0.957 ± 0.022
LRRC42 (UniProt Q9Y546),1.01 ± 0.089,0.968 ± 0.043,1.07 ± 0.043,1.03 ± 0.07,1.01 ± 0.043,0.977 ± 0.083
UniProt Q9Y2Y0 and related entries,1.01 ± 0.056,1.03 ± 0.066,1.01 ± 0.073,0.981 ± 0.093,0.969 ± 0.056,0.974 ± 0.091
DDX49 (UniProt Q9Y6V7),1.06 ± 0.078,1.05 ± 0.14,1.12 ± 0.08,1.15 ± 0.12,1.19 ± 0.17,1.23 ± 0.19
UniProt Q9Y6M9 and related entries,1.02 ± 0.09,0.968 ± 0.041,0.963 ± 0.044,0.984 ± 0.12,0.929 ± 0.034,0.861 ± 0.15
SAMM50 (UniProt Q9Y512),1.05 ± 0.15,0.984 ± 0.077,0.946 ± 0.075,0.84 ± 0.076,0.97 ± 0.016,0.961 ± 0.072
UniProt Q9Y6N5,1.05 ± 0.084,0.986 ± 0.059,0.973 ± 0.061,0.951 ± 0.087,1.02 ± 0.041,0.991 ± 0.039
BOLA1 (UniProt Q9Y3E2),0.881 ± 0.078,0.965 ± 0.078,0.956 ± 0.035,0.989 ± 0.12,0.918 ± 0.064,0.904 ± 0.076
HEBP2 (UniProt Q9Y5Z4),0.941 ± 0.063,0.989 ± 0.019,0.937 ± 0.028,0.98 ± 0.038,0.921 ± 0.047,0.937 ± 0.038
NDUFAF1 (UniProt Q9Y375),0.998 ± 0.059,0.989 ± 0.051,0.965 ± 0.061,0.955 ± 0.075,0.986 ± 0.041,0.965 ± 0.033
MRPS16 (UniProt Q9Y3D3),0.953 ± 0.011,0.907 ± 0.086,0.874 ± 0.078,0.849 ± 0.1,0.856 ± 0.11,0.783 ± 0.083
UniProt Q9Y3C1 and related entries,1 ± 0.053,1.01 ± 0.022,0.868 ± 0.043,0.852 ± 0.071,0.714 ± 0.21,0.875 ± 0.24

Target,NP40-soluble protein abundance (concentration: 1mM),NP40-soluble protein abundance (concentration: 2mM),NP40-soluble protein abundance (concentration: 4mM),NP40-soluble protein abundance (concentration: 6mM),NP40-soluble protein abundance (concentration: 8mM),NP40-soluble protein abundance (concentration: 10mM)
AP4B1 (UniProt Q9Y6B7),0.956 ± 0.087,1 ± 0.0028,1.01 ± 0.052,1.05 ± 0.013,0.986 ± 0.066,1.08 ± 0.037
IVNS1ABP (UniProt Q9Y6Y0),1.09 ± 0.027,1.02 ± 0.036,1.03 ± 0.041,0.985 ± 0.092,1.04 ± 0.11,1.04 ± 0.084
ORC6 (UniProt Q9Y5N6),0.954 ± 0.033,0.939 ± 0.044,0.931 ± 0.04,0.961 ± 0.061,0.933 ± 0.026,0.93 ± 0.012
UniProt Q9Y3P8 and related entries,0.987 ± 0.046,0.97 ± 0.092,1.02 ± 0.12,0.97 ± 0.13,0.887 ± 0.012,0.822 ± 0.084
UniProt Q9Y6R1 and related entries,0.685 ± 0.15,0.61 ± 0.13,0.699 ± 0.11,0.781 ± 0.11,0.749 ± 0.085,0.781 ± 0.11
SH3BP1 (UniProt Q9Y3L3),0.974 ± 0.045,0.969 ± 0.028,0.962 ± 0.038,0.972 ± 0.01,0.948 ± 0.042,0.945 ± 0.023
UniProt Q9Y2I7 and related entries,0.979 ± 0.023,0.98 ± 0.02,0.987 ± 0.013,0.96 ± 0.019,0.97 ± 0.027,0.971 ± 0.044
THRAP3 (UniProt Q9Y2W1),1.23 ± 0.082,1.33 ± 0.059,1.4 ± 0.065,1.53 ± 0.08,1.51 ± 0.042,1.54 ± 0.043
SLC30A1 (UniProt Q9Y6M5),1.09 ± 0.097,0.922 ± 0.062,1.12 ± 0.18,1.11 ± 0.021,1.032 ± 0.0064,1.1 ± 0.12
GSTK1 (UniProt Q9Y2Q3),1 ± 0.065,0.994 ± 0.04,0.975 ± 0.074,0.932 ± 0.088,0.946 ± 0.057,0.94 ± 0.057
UniProt Q9Y3C4 and related entries,0.961 ± 0.059,0.984 ± 0.029,0.947 ± 0.041,0.945 ± 0.045,0.981 ± 0.032,0.926 ± 0.045
UniProt Q9Y679 and related entries,0.982 ± 0.093,1.01 ± 0.099,1.04 ± 0.094,1.05 ± 0.1,1.06 ± 0.096,1.06 ± 0.11
RAD54L2 (UniProt Q9Y4B4),0.99 ± 0.038,1.01 ± 0.022,0.999 ± 0.033,1.02 ± 0.033,0.9896 ± 0.0094,1.01 ± 0.021
UniProt Q9Y320 and related entries,0.976 ± 0.019,0.968 ± 0.026,0.951 ± 0.03,0.961 ± 0.053,0.952 ± 0.029,0.942 ± 0.034
GOLT1B (UniProt Q9Y3E0),0.997 ± 0.051,1.01 ± 0.15,1.07 ± 0.099,0.997 ± 0.1,0.987 ± 0.032,1.04 ± 0.042
UniProt Q9Y5U2 and related entries,0.952 ± 0.17,0.937 ± 0.15,0.919 ± 0.12,0.981 ± 0.18,0.917 ± 0.18,0.943 ± 0.16
UFC1 (UniProt Q9Y3C8),0.917 ± 0.12,0.886 ± 0.041,0.909 ± 0.095,0.901 ± 0.05,0.924 ± 0.013,0.808 ± 0.091
ZNF330 (UniProt Q9Y3S2),0.99 ± 0.023,0.96 ± 0.036,0.971 ± 0.058,0.982 ± 0.039,0.992 ± 0.046,0.968 ± 0.018
UniProt Q9Y3B7 and related entries,1.1 ± 0.24,0.945 ± 0.1,1.06 ± 0.18,1.02 ± 0.35,1.08 ± 0.22,0.852 ± 0.21
UniProt Q9Y3E7 and related entries,1.21 ± 0.061,1.21 ± 0.1,1.18 ± 0.091,1.29 ± 0.06,1.28 ± 0.084,1.16 ± 0.05
SPCS1 (UniProt Q9Y6A9),1.01 ± 0.013,0.991 ± 0.039,0.956 ± 0.011,0.96 ± 0.018,0.96 ± 0.025,0.966 ± 0.06
UniProt Q9Y4B5 and related entries,1.07 ± 0.098,1.11 ± 0.085,1.09 ± 0.063,1.12 ± 0.046,1.08 ± 0.055,1.1 ± 0.021
PRKAB1 (UniProt Q9Y478),0.898 ± 0.075,0.895 ± 0.086,0.845 ± 0.1,0.824 ± 0.092,0.828 ± 0.069,0.841 ± 0.08
PSAT1 (UniProt Q9Y617),0.931 ± 0.018,0.935 ± 0.024,0.892 ± 0.011,0.899 ± 0.071,0.896 ± 0.016,0.906 ± 0.024
WBP11 (UniProt Q9Y2W2),1 ± 0.049,1.07 ± 0.026,1.07 ± 0.018,1.14 ± 0.016,1.12 ± 0.05,1.14 ± 0.027

# 2 records drawn at random from those above, as already listed:
Target,NP40-soluble protein abundance (concentration: 1mM),NP40-soluble protein abundance (concentration: 2mM),NP40-soluble protein abundance (concentration: 4mM),NP40-soluble protein abundance (concentration: 6mM),NP40-soluble protein abundance (concentration: 8mM),NP40-soluble protein abundance (concentration: 10mM)
SH3BP1 (UniProt Q9Y3L3),0.974 ± 0.045,0.969 ± 0.028,0.962 ± 0.038,0.972 ± 0.01,0.948 ± 0.042,0.945 ± 0.023
SLC30A1 (UniProt Q9Y6M5),1.09 ± 0.097,0.922 ± 0.062,1.12 ± 0.18,1.11 ± 0.021,1.032 ± 0.0064,1.1 ± 0.12
